Laboratory results: patent US11284615B2, “Cryopreservation using sucralose” (East Carolina University, priority 2015, dated 2022)

Assay: Merocyanine 540 fluorescent probe in model membranes
Format: physicochemical
Conditions: increasing amounts of sucralose

OC[C@H]1O[C@H](O[C@]2(CCl)O[C@H](CCl)[C@@H](O)[C@@H]2O)[C@H](O)[C@@H](O)[C@H]1Cl [sucralose, 1,6-Dichloro-1,6-dideoxy-β-D-fructofuranosyl-4-chloro-4-deoxy-α-D-galactopyranoside]
fluidity of model membranes: increase in fluidity
polarity of model membranes: decrease in polarity
